These are yes or no findings as the source states them, for the method shown.
Tests used:
[1] = target: MrkH (Klebsiella pneumoniae) (UniProt G3FT00); assay: SEC; size-exclusion chromatography of the MrkH/c-di-GMP complex (in the presence of c-di-GMP); absorbance at 280 nm; both purified
[2] = target: MrkH (Klebsiella pneumoniae) (UniProt G3FT00); assay: SEC; size-exclusion chromatography of MrkH in the absence of c-di-GMP; absorbance at 280 nm; both purified

Sequences of proteins named here, by UniProt entry; tags and fusion partners are left off. Residues count along the entry.
UniProt G3FT00, residues 1-228: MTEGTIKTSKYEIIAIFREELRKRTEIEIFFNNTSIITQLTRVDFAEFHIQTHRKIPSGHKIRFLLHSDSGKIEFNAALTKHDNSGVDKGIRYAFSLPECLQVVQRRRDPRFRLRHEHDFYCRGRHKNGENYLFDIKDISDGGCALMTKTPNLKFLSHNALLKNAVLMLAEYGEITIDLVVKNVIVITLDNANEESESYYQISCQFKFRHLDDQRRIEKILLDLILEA

Which binding [1] does the source give for MrkH (from UniProt G3FT00 1-228) here?
Its binding is “no binding”.

What about the binding [2] of the same substance?
The binding was “no binding”.

From article PMC5055493, “The PilZ domain of MrkH represents a novel DNA binding motif” (Protein & Cell, 2016)
